{"source": "ChEMBL document CHEMBL3856275", "about": "“Discovery of Second Generation Reversible Covalent DPP1 Inhibitors Leading to an Oxazepane Amidoacetonitrile Based Clinical Candidate (AZD7986)” (J Med Chem, 2016)", "key": {"physchem [1]": {"assay": "physchem", "conditions": "buffer, pH 7.4"}, "physchem [2]": {"assay": "physchem", "conditions": "octanol/water, pH 7.4"}}, "data": [{"smiles": "CCn1c(=O)oc2ccc(-c3ccc(C[C@@H](C#N)NC(=O)[C@@H]4CNCCCO4)cc3)cc21", "values": [{"measurement": "solubility kinetic at 2 h", "setting": "physchem [1]", "result": 185, "unit": "µM"}, {"measurement": "logD at 10 µM", "setting": "physchem [2]", "result": 1.3}]}]}
